# In all, about 300,000 compounds went through this assay and about 5,400 (1.8%) were called active. Inconclusive results, whose numbers are uncertain, are shown with a selection of clear calls. Calls follow the shape of the full dose curve; tested in HEK293 cells. Where the call is inconclusive, the potency comes from a doubtful curve fit.
# Assay: qHTS for inhibitors of binding or entry into cells for Marburg Virus
# Details: Marburg virus pseudotyped entry inhibition, cell reporter; series mostly up to 37.8 µM
# Potency is read from the fitted curve at half-maximal effect.
row,SMILES,Potency
1,CN1CCC(N(C)CC(=O)Nc2ccc3c(c2)OC(F)(F)O3)CC1,"inconclusive: 7.94 µM [inhibitor, partial curve, poor fit]"
2,COc1ccc2nc3cc(Cl)ccc3c(Nc3cc(C(C)C)c(O)cc3C)c2c1,active: 11.2 µM
3,O=C(CN1CCCCC1)Nc1ccc(S(=O)(=O)NC2CCCCC2)cc1,"inconclusive: 11.6 µM [inhibitor, partial curve, poor fit]"
4,COc1ccc2nc(N3CCN(C(=O)c4ccc5ncsc5c4)CC3)sc2c1,inactive
5,COC(=O)c1c(C)[nH]c(C(=O)COC(=O)Cn2cc(C(F)(F)F)ccc2=O)c1C,"inconclusive: 0.398 µM [inhibitor, single point]"
6,COc1ccc([N+](=O)[O-])cc1N(CC(O)CN1CCCCC1)S(=O)(=O)c1ccccc1 (stereo not drawn),"inconclusive: 2.82 µM [inhibitor, single point]"
7,Cc1nc(NC(=O)CCCC(=O)Nc2nc(C)c(C)s2)sc1C,"inconclusive: 16.4 µM [activator, single point]"
8,CCNC(=S)N1CCn2cccc2C1c1ccc(F)cc1 (stereo not drawn),"inconclusive: 20 µM [inhibitor, single point]"
9,CCCn1c2ccccc2c2nnc(SCCN3CCOCC3)nc21,"inconclusive: 35.5 µM [inhibitor, single point]"
10,CO/N=C\CC(=O)Nc1ccc(Oc2ccccc2)cc1,"inconclusive: 0.501 µM [inhibitor, full curve, poor fit]"
11,COc1ccc(/C=C2\CCCc3c2nc2ccccc2c3C(=O)OCC(=O)c2c(N)n(C)c(=O)n(C)c2=O)cc1,inactive
12,Cc1ccc(CC2SC(N=C(N)N)=NC2=O)cc1 (stereo not drawn),inactive
13,O=C(NCc1ccccc1)C1CCCN(S(=O)(=O)c2ccc(F)cc2)C1 (stereo not drawn),"inconclusive: 15.8 µM [inhibitor, single point]"
14,COCCNC(=O)/C(C#N)=C/C=C/c1ccccc1,"inconclusive: 10 µM [inhibitor, partial curve, poor fit]"
15,C=CCn1c(N)c(C(=O)Nc2ccccc2)c2nc3ccccc3nc21,"inconclusive: 35.5 µM [inhibitor, single point]"
16,Cc1cccc(NC(=O)C(=O)N/N=C/c2ccncc2)c1,"inconclusive: 6.31 µM [activator, single point]"
17,CC(C)(C)c1ccc(C(=O)N2CCC(=O)N(C(COCc3ccccc3)Cc3ccccc3)CC2)cc1 (stereo not drawn),"inconclusive: 25.9 µM [inhibitor, single point]"
18,CC1CCN(CC(=O)Nc2ccc(C(=O)N3CCCCC3)cc2)CC1,inactive
19,Cc1ccc(SCCC(=O)N/N=C/c2ccccc2O)cc1,"inconclusive: 35.5 µM [inhibitor, single point]"
20,CCOC(=O)CC1COCCN1C(=O)c1cc(COc2ccc(F)cc2Cl)on1 (stereo not drawn),inactive
21,O=C(O)c1cc(/C=C/c2ccc(N3CCOCC3)cc2)nc2ccccc12,"inconclusive: 3.55 µM [inhibitor, partial curve, poor fit]"
22,CCc1nc(Nc2cccc(OC)c2)c2oc3ccccc3c2n1,inactive

# Reformatted with bars between the fields: 2 of the compounds above
row | SMILES | Potency
14 | COCCNC(=O)/C(C#N)=C/C=C/c1ccccc1 | inconclusive: 10 µM [inhibitor, partial curve, poor fit]
22 | CCc1nc(Nc2cccc(OC)c2)c2oc3ccccc3c2n1 | inactive

# Next part

row,SMILES,Potency
1,N=c1c(-c2nc3ccccc3[nH]2)cc(C(=O)c2ccco2)nn1-c1ccccc1,"inconclusive: 23.1 µM [inhibitor, single point]"
2,Cc1c(NC(=O)c2coc(=O)c(Br)c2)c(=O)n(-c2ccccc2)n1C,"inconclusive: 35.5 µM [inhibitor, single point]"
3,Cc1ccccc1C(CC(=O)c1cccs1)C(C#N)C#N (stereo not drawn),"inconclusive: 4.47 µM [inhibitor, full curve, poor fit]"
4,COc1cc2c(cc1OC)CN(C(=O)c1ccc(OC)c(S(=O)(=O)N3CCCC3)c1)CC2,inactive
5,CC1CCCCN1CCCNC(=O)c1cc(Br)c(Br)[nH]1 (stereo not drawn),"inconclusive: 25.1 µM [inhibitor, single point]"
6,O=C(N/N=C/c1sc(=O)[nH]c1-[n+]1ccccc1)c1ccccc1[O-],"inconclusive: 3.55 µM [inhibitor, single point]"
7,CN(C)Cc1cc(C(C)(C)c2ccccc2)ccc1O,"inconclusive: 15.8 µM [inhibitor, partial curve, poor fit]"
8,CCCCN(CC)S(=O)(=O)c1ccc(C(=O)Nc2nnc(-c3cccs3)o2)cc1,active: 8.91 µM
9,Cc1ccc(S(=O)(=O)N2CCc3ccccc3CC2)cc1,"inconclusive: 1.58 µM [inhibitor, full curve, poor fit]"
10,CCC(=O)c1cn(CC(=O)Nc2ccccc2Cl)c2ccccc12,"inconclusive: 1 µM [inhibitor, full curve, poor fit]"
11,CC(=O)NS(=O)(=O)c1ccc(NC(=O)CC(C)c2ccccc2)cc1 (stereo not drawn),"inconclusive: 10 µM [activator, partial curve, poor fit]"
12,COc1ccc(C(=O)C(OC(=O)c2ccccc2Cl)c2ccccc2)cc1 (stereo not drawn),inactive
13,O=C(NCCc1cccc(F)c1)C1CCCN(c2nc3ccccc3s2)C1 (stereo not drawn),inactive
14,CC1(C)CC(CCNCc2ccc3c(c2)OCO3)(Cc2ccccc2)CCO1 (stereo not drawn),"inconclusive: 8.91 µM [inhibitor, partial curve, poor fit]"
15,CCCCn1c(N)c(N(Cc2ccccc2OC)C(=O)c2cc(CC)c(C)s2)c(=O)[nH]c1=O,"inconclusive: 0.501 µM [inhibitor, full curve, poor fit]"
16,Cc1nnsc1-c1nnc(SCC(=O)c2ccc(F)cc2)n1C1CC1,"inconclusive: 0.891 µM [activator, single point]"
17,COc1ccccc1N1C(=O)C2CCC(c3ccccc3)CC2C1=O (stereo not drawn),inactive
18,CC(=O)N1CCC(C(=O)NC2CC(C)(C)Cc3c2cnn3-c2ccc(F)cc2)CC1 (stereo not drawn),inactive
19,CCOc1cccc2sc(N(CCN(CC)CC)C(=O)c3cccc(N4C(=O)CCC4=O)c3)nc12,"inconclusive: 35.5 µM [inhibitor, partial curve, poor fit]"
20,O=C(NCCN1C(=O)S/C(=C\c2ccc(Cl)cc2)C1=O)C1=COCCO1,"inconclusive: 0.0891 µM [activator, full curve, poor fit]"
21,CN(C)CCCN(C(=O)c1ccc(S(=O)(=O)N2CCc3ccccc32)cc1)c1nc2ccc(Cl)cc2s1,"inconclusive: 35.5 µM [inhibitor, single point]"

# — PubChem BioAssay AID540276 (National Center for Advancing Translational Sciences (NCATS), 2011)
